This passage reports binding results from patent publication US20210139565A1 (GOVERNMENT OF THE UNITED STATES AS REPRESENTED BY THE …, published 2021).

By UniProt entry, the sequences of proteins in these tests, tags left out.
UniProt P0C7U7: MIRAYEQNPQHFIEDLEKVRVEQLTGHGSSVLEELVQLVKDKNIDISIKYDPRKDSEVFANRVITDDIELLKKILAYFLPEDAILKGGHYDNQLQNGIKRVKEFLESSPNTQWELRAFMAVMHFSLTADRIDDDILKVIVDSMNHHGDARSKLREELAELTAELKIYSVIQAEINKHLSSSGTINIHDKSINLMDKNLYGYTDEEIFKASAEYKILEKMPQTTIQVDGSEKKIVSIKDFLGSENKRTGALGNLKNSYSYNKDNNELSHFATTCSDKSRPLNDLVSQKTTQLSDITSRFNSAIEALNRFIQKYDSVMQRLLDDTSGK

Positions count from the first letter of the chain named. These are yes or no findings as the source states them, for the method shown. Some results given as binding are weak or reduced against the parent protein; the word gives no strength.

Assay [1] has as its target Y. pestis LcrV protein (Yersinia pestis KIM5) (UniProt P0C7U7). Nature of the assay: SPR, BIACORE, LcrV immobilized on CM5 chip.
Assay [2] shares this target. Kind of assay: ELISA of periplasmic extract on LcrV antigen and on blank wells, OD405.

B1: 1LCRV13 (VHH)
VHH: QVQLQESGGGLVRPGGSLKLSCAASGFTFNWYTMAWYRQVPGEERKMVATITGASGDTKYADSVKGRFTISRDNAKNTVTLQMNSLKPGDTAVYYCHAYLTYDSGSVKGVNYWGQGTQVTVSS
Turning to B1, the binding entry in assay [1] and in assay [2] was “binds” throughout.

B2: 1LCRV81 (VHH)
VHH: B1 VHH with L11S, R13Q, F68S, Y99C
B2: in assay [2], the binding result is listed as “binds”.

B3: 1LCRV32 (VHH)
VHH: QVQLQESGGGMVEPGGSLRLSCAASGFRFSSYAMSWVRQAPGKGLERVSAINSDGDKTSYADSVKGRFTISRDNARNTLYLQMSNLKPEDTAVYYCADRDLYCSGSMCKDVLGGARYDFRGQGTQVTVSS
With B3, the binding result in assay [2] was “binds”.
